± gives the standard deviation. Some of the results follow. Many entries were measured with a wide error.
The sequences below were run on EfPiwi piRISC loaded with L1MC piRNA (26 nt) (assay: pre-steady-state target cleavage rate (min^-1); guide: L1MC piRNA 5'p-UAACUAAAUACUAUGCAAGCUGUAGG; MIWI and MILI are mouse PIWI proteins and EfPiwi is from a freshwater sponge; tags in brackets are library labels; higher = faster piRNA-guided slicing of the target). Details: auxiliary factor: none (no Gtsf1).
Outline: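 The pre-steady-state cleavage rate was obtained by Cleave-'n-Seq with a burst-and-steady-state fit. A transcribed, DNA-blocked target RNA library (0.1 nM) was mixed with 1 nM active affinity-purified piRISC carrying one synthetic guide, with or without 500 nM GTSF1 partner protein, in HEPES–potassium acetate buffer at 33 °C for 0–8 or 0–960 min. Uncleaved targets were sequenced and normalised to depth and to weakly complementary targets, with three trials pooled and k3 capped at 0.0001 min^-1.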

Row | Sequence | pre-steady-state target cleavage rate
1 | UCCUCCUACAGCUUCCAAAGUAUUUAGUUA | 0.00059 ± 0.01
2 | UCCUGGAUGUCGAACCAUUAGUAUUUAGUUA | 0.000123 ± 0.046
3 | UCCUGGAUGUCGAUGCAUAGGAUUUAGUUA | < 0.0001
4 | UCCUGCUAGAGCUUGCAUAGUAUUUACAAA | 0.000173 ± 0.028
5 | UCCUGGAUGUCGAACCAUAGUAUUUCAGUUA | < 0.0001
6 | UCCUGCUACAGCUUGCAUAGAUUUUACAAA | 0.000327 ± 0.018
7 | UCCUGGAACAGCUUGCAUAGUAAAAAGUUA | 0.000623 ± 0.015
